The record followed here is paper PMC12645055.

Chains of the proteins cited; added tags and fusions are not shown.
UniProt P50552: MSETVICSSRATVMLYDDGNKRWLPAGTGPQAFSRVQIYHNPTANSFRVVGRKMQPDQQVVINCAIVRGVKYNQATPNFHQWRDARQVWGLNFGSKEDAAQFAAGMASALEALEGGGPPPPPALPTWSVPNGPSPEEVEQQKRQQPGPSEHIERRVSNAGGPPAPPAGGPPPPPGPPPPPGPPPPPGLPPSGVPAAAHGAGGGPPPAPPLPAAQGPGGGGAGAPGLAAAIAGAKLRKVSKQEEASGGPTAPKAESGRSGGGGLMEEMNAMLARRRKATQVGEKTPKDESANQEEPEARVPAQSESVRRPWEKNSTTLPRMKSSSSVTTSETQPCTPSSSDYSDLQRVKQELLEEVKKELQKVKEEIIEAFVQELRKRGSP
UniProt O15105: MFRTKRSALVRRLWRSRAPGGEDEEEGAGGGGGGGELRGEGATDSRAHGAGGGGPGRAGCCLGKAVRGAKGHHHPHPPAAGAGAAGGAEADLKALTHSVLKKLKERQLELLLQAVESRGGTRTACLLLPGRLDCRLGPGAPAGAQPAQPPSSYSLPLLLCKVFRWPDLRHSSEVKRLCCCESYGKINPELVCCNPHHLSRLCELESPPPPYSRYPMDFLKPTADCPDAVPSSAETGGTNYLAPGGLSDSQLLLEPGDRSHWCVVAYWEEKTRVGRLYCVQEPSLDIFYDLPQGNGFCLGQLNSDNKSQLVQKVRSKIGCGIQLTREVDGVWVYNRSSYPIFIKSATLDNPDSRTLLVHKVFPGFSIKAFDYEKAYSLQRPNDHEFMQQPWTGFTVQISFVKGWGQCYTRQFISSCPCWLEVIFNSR

The target in assay [1] is VASP (human (endogenous in PANC-1 and AsPC-1)) (UniProt P50552). Put plainly: co-IP; PANC-1 and AsPC-1 cells; antibodies and direction not told; for VASP-SMAD7 also after knock-down or overexpression of EMP1.
The target in the next assay is T1, EMP1 (UniProt P54849).
T1 sequence: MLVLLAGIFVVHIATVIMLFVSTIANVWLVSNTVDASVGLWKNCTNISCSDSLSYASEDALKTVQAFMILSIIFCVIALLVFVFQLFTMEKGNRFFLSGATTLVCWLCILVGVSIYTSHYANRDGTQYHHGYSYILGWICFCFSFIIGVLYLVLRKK
The assay is described as above.

Results are given in words; binding and its absence hold for the method and conditions named. In cells and extracts the contact can be indirect. Some results given as binding are weak or reduced against the parent protein; the word gives no strength.

Regarding SMAD7 (from UniProt O15105 1-426), the binding entry in assay [1] is reported as “binds”.
As for VASP (from UniProt P50552 1-380), in the assay with EMP1, the binding entry was “binds”.
